Reference: publication PMC4206343, “A Novel Aminothiazole KY-05009 with Potential to Inhibit Traf2- and Nck-Interacting Kinase (TNIK) Attenuates TGF-β1-Mediated Epithelial-to-Mesenchymal Transition in Human Lung Adenocarcinoma A549 Cells” (PLoS ONE, 2014)
No constants are given. Whether binding was seen depends on the method and setting. Binding seen in cells or lysates may run through a third protein. Some binding calls cover weakened binding; strength is not graded here.

Sequences of proteins named here, by UniProt entry; tags and fusion partners are left off.
UniProt Q9NQB0: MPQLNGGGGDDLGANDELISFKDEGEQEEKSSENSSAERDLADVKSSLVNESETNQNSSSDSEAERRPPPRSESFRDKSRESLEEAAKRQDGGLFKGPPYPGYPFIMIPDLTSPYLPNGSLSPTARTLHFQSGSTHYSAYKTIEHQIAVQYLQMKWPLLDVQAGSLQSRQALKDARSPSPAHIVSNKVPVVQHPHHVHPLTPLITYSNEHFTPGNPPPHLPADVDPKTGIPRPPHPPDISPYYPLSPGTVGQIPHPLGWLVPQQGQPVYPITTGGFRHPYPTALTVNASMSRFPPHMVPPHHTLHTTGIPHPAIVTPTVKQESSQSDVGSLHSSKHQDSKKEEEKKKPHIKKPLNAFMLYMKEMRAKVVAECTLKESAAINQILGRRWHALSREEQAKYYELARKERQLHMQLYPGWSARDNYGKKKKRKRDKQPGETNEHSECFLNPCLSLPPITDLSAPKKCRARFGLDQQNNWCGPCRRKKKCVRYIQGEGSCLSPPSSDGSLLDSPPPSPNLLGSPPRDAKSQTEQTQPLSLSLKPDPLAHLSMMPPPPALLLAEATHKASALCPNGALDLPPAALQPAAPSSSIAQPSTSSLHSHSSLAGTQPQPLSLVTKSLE
UniProt Q9UKE5: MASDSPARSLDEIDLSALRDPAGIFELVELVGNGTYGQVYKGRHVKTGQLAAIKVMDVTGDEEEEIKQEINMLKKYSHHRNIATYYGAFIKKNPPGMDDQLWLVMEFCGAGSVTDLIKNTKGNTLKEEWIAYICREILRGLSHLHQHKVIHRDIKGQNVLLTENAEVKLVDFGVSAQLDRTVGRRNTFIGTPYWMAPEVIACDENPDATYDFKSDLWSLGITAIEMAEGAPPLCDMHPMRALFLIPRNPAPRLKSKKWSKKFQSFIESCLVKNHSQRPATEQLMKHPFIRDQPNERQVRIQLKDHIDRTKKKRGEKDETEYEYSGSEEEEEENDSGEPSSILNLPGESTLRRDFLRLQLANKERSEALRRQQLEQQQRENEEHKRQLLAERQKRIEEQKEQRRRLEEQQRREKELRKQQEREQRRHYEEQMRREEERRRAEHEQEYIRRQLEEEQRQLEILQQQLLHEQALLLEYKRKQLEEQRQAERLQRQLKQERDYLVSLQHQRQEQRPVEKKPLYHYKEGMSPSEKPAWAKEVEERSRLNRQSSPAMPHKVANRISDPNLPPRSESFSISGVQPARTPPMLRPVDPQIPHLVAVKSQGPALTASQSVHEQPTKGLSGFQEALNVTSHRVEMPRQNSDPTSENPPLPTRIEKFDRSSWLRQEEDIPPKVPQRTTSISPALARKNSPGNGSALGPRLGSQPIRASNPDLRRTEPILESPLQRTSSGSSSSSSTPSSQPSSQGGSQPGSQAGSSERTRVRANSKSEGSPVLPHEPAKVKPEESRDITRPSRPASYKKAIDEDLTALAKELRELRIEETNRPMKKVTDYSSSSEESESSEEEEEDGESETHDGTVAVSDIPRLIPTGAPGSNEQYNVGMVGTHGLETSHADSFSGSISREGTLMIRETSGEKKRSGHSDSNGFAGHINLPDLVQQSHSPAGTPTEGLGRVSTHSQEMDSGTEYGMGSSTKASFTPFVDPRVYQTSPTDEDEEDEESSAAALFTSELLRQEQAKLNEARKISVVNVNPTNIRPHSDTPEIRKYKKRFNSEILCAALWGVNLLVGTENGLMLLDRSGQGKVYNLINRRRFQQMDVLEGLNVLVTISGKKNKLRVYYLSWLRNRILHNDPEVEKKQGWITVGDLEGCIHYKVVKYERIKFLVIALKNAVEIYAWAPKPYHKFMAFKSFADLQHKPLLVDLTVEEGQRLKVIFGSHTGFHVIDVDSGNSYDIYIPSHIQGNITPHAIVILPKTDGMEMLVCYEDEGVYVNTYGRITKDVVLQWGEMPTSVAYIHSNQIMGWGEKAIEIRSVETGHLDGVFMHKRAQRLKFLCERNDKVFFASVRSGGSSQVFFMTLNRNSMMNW

Biological target: TCF4 (human (endogenous in A549)) (UniProt Q9NQB0)
Experiment: co-IP; endogenous complexes precipitated overnight at 4°C with an anti-TCF4 antibody and Protein A magnetic beads from pre-cleared total lysates of A549 cells (serum-starved 24 h, then TGF-β1 with or without KY-05009 for 48 h); bound proteins detected by Western blot

- binding: binds
Substance: Traf2- and Nck-interacting kinase (from UniProt Q9UKE5 1-1360)
